From article PMC8144423
Results are given in words; binding and its absence hold for the method and conditions named. Binding seen in cells or lysates may run through a third protein. A yes stands for co-enrichment or nearness to the bait. Other partners may have been found. For part of these data: No binding means not detected with the bait. For part of these data: Sequences can lack the tags named with a protein. Blank lines part the entries; values can stand above or below the molecule they belong to.

The chains behind the UniProt entries cited, without tags or fusion partners.
UniProt Q69ZR9: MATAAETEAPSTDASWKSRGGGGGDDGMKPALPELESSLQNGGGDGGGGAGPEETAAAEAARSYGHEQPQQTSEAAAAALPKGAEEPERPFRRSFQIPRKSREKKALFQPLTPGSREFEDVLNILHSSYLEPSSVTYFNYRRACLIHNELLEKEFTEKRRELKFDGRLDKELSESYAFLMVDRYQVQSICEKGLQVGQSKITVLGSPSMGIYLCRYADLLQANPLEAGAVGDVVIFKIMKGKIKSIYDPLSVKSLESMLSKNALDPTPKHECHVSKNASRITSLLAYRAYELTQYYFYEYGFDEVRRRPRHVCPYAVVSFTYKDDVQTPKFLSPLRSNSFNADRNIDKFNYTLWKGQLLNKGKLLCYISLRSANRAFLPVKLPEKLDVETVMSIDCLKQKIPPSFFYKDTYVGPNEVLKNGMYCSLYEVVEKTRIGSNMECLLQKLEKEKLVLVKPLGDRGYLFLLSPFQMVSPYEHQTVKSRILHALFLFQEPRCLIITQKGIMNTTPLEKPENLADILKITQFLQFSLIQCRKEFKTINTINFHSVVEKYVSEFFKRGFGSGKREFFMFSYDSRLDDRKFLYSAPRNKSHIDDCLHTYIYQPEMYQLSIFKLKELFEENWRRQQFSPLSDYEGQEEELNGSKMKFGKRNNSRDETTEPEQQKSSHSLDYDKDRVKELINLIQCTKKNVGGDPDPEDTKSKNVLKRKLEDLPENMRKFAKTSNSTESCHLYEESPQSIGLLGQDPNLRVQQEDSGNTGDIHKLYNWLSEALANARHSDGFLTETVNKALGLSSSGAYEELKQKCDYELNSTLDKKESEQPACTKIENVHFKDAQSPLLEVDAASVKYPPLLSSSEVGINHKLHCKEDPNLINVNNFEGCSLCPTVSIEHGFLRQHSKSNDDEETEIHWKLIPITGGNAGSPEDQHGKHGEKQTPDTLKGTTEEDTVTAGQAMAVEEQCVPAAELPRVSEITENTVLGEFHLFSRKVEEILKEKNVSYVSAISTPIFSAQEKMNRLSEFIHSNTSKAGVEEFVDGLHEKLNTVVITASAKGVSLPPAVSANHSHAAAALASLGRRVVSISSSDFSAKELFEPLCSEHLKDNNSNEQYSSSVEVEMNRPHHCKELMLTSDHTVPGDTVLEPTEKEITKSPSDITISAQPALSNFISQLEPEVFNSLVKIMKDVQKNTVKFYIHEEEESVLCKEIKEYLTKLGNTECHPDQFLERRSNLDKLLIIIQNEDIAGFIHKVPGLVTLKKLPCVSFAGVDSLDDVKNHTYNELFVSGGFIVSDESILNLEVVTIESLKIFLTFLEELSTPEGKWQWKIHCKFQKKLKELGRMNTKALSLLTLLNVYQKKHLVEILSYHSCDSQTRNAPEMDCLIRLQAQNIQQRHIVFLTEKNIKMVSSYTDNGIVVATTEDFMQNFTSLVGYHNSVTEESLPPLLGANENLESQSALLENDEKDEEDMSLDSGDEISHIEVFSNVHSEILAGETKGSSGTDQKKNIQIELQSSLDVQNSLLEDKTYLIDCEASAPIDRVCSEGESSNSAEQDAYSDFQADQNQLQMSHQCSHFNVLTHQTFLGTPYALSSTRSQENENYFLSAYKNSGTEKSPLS
UniProt Q61103: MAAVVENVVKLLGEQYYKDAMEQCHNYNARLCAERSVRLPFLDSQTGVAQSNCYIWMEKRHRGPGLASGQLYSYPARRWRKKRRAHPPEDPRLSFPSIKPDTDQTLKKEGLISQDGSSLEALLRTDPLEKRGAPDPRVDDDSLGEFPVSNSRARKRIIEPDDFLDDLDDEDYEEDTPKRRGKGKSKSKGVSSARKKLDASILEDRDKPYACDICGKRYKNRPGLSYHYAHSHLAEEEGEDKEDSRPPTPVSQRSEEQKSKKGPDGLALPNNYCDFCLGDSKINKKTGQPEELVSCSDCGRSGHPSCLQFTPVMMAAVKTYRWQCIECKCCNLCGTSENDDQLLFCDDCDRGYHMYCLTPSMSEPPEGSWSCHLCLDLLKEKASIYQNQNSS
UniProt Q8BFQ4: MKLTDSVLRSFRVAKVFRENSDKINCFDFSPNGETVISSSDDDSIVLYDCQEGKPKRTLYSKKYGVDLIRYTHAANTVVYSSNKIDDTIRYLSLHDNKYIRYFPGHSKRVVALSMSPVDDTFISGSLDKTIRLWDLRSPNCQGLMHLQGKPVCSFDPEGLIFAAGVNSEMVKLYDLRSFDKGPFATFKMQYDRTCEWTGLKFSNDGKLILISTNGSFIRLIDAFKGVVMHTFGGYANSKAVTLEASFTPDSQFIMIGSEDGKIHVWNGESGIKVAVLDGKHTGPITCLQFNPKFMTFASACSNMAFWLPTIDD

Key:
[1] = molecular target: TASOR, endogenously tagged with a C-terminal double FLAG epitope (Tasor^Flag2) (mouse (endogenous in mESCs)) (UniProt Q69ZR9); experiment: affinity purification with mass spectrometry; FLAG pull-down (FLAG M2 beads, 4 °C overnight) from lysate of Tasor^Flag2 mESCs in IP300 buffer (50 mM Tris-HCl pH 7.5, 300 mM NaCl, 0.5% IGEPAL CA-630, 1 mM EDTA pH 8.0); parental untagged mESCs as background control; LC-MS/MS, label-free; volcano plot FDR = 0.05, s0 = 2; n = 2
[2] = molecular target: T1, MPP8 wild-type (M-Phase Phosphoprotein 8), ectopically expressed, C-terminal double FLAG tag (mouse) (UniProt Q3TYA6); experiment: affinity purification with mass spectrometry; FLAG M2 beads with lysates of Mpp8^mAID; OsTIR1 mESCs expressing double-FLAG MPP8 wt, 1-729 or 112-858, 500 µM IAA 12 h; IP300 buffer (50 mM Tris-HCl pH 7.5, 300 mM NaCl, 0.5% IGEPAL CA-630, 1 mM EDTA), 4 °C overnight; label-free LC-MS/MS; parental Mpp8^mAID cells as background
T1 sequence: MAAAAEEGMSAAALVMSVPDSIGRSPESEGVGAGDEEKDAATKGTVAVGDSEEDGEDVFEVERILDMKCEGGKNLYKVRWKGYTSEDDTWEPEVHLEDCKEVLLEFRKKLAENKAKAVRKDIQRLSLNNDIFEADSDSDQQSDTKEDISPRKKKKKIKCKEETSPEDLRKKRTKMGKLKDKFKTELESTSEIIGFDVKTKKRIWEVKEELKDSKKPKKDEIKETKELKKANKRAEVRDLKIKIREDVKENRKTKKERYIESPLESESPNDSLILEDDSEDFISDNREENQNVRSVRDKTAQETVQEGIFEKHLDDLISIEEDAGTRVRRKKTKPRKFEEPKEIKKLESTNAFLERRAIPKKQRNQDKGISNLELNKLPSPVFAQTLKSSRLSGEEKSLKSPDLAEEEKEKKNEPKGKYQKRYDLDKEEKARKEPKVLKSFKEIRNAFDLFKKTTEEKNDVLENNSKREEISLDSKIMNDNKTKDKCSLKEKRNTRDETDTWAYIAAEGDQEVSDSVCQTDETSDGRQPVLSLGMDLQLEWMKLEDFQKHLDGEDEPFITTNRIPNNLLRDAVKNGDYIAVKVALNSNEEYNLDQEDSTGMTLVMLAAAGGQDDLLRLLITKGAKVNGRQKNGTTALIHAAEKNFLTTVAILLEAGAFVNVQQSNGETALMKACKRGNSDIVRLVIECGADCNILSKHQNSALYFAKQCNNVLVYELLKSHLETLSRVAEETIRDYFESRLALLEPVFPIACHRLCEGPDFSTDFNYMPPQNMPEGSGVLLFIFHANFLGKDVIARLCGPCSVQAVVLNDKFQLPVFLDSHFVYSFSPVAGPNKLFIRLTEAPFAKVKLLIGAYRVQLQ

[3] = molecular target: T2, MPP8^1–729, C-terminally truncated MPP8, C-terminal double FLAG tag (mouse) (UniProt Q3TYA6); experiment: as above
T2 sequence: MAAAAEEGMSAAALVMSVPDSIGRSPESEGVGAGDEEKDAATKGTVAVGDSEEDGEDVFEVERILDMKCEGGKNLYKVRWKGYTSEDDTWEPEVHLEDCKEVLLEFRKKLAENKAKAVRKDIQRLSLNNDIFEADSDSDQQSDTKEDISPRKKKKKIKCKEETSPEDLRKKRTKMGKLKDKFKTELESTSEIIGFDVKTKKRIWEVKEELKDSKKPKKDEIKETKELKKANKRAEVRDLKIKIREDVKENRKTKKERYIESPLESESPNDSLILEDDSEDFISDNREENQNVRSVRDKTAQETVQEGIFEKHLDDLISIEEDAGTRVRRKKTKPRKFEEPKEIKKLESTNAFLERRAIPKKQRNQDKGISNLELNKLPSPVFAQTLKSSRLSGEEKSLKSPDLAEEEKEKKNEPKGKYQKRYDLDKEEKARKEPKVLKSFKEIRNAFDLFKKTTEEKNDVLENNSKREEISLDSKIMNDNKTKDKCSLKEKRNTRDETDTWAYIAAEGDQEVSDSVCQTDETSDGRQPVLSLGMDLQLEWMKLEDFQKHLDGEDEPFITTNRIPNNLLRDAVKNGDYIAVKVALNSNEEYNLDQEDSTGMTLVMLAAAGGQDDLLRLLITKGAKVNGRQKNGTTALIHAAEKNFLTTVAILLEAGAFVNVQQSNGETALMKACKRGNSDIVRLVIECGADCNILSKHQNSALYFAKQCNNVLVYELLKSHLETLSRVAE

[4] = molecular target: TASOR, bait of the purification of TASOR-associated proteins (mouse (endogenous in mESCs)) (UniProt Q69ZR9); experiment: affinity purification with mass spectrometry; TASOR-associated proteins purified (Supplementary Fig. 5a); cells, tag and conditions not given

Molecule: Dpf2 (from UniProt Q61103 1-391)
binding [1]: binds

B3: Cd2bp2 (protein, UniProt Q9CWK3 1-342)
chain: MPKRKVTFQGVGDEDGEDEISVPKKKLVDPVAAAGGPGSRFKGKHSLDSDEEDDDEEGSSKYDILASEDVEGQEAATLPSEGGVRITPFNLQEEMEEGHFDADGNYFLNQDAQIRDSWLDNIDWVRIKERPPDKHQVSDSEEEDSLGQTPMSAQALLEGLLELLLPRETVAGALRRLGARGGGKGSNSKGTGRPNSPQRLDRLSGLADQMVARGNLGVYQETRERLAMRLKGLGCRAQGSHDPTPPPSLDMFAEEVAEGELETPTPTQREEAESAGDGLMDVMWEYKWENTGDAELYGPFTSAQMQTWVSEGYFPDGVYCRKLDPPGGQFYNSKRIDFELYT
binding [1]: binds

B4: ATF7IP (HUSH-associated member), endogenous (protein, UniProt Q7TT18 1-1306)
chain: MDSVEEPQKKVFKARKTMRASDRQQLDAVHRVKGELLRADGKLLNGSHENGDLDPTSPLENTDCIQDREEVNGIDGICFQSEESTTEWKETPCMPNVAVKNKQEDLNSEALSPSITCDLSSRVTTEPGSGSPASDNPGCGTPVSDNPASDNPASDNPASDNPDSGDLAAGELATTVQATGDSACEEPPSSDPSSSDPTSSEPSSSEPTCSEPISGDPVSEEAASHDLVSGDSTCSEPVSGEPVSHEAASSEPATSEPASDEPVARVVAACELAPGESALDDCAPSGDSQSDEPPSSEDSLPRSVCSGLASGELTPGELSVEPATDTVKPSSSAVCEAGPDPDKTEPSSNNSDDCPGKSEDDEHLDQIQSKDSCDEGNKVNSNVVEKEEPLETHSAIICSDLPPENTTKIAEDPIAEPALEEEAISSSMEVDQSEKDEHKSPAEPVAAVSEDPAEEDKEDTVVDNTDSMETDEIIPILEKLAPTEDELSCFSKASLLPVETSQDLEDKMEGSFGSPSKQESSENLPKEAFLVLSDEEDLSCGKDESEAVAQSKMSTPEGEKSEKDGKAEEEERVPAEEQPPVRNEFSRRKRSKSEDMDSVESKRRRYMDEEYEAEFQVKITAKGDINQKLQKVIQWLLQEKLCALQCAVFDKTLAELKTRVEKIECNKRHKAVLTELQAKIARLTKRFGAAKDDLKKRQESPPNPPISPGKPANDTNSNNNMTYRNAGTVRQLLESKRNVSEGPPPSFQTPVNTVSSASHATSTAVVSSQPKLQTSATSGSLPAAPLLPAPSTATVVATTQVPSGTPQPTISLQPLPVILHVPVAVTSQPQLLQSHPGTLVTNQPSGNVEFISVQSQPTVSGLTKNPVSLPPLPNPTKPNIPSVPSPSSIQRNSSTTAAPLGTTLAVQAVPTAHSIVQATRTSLPTVGPSGLYSSSSSRGPIQMKIPISTFSPPSSAEQNSSATPRIVTENQTNKTVDSSINKKAADSTSQSGKASSSDSSGVIDLTMDDEESGTTQDPKKISPPSSSTVSTSQPMSRPLQPILPAPPLQPSGVPTSGPSQATIHVLPTAPTTVNVTHRPVTQVTTRLPVPRAPANHQVVYTTLPAPTTQAPLRGTVMQAPAVRQVNPQNSVTVRVPQTTTYVVNNGLTLGSAGPQLTVHHRPPQVHNEPPRPLHPAPLPEAPQPQRLPPEAASTSLPQKPHLKLARVQSQNGIVLSWSVLEVDRSCATVDSYHLYAYHEEPSATVPSQWKKIGEVKALPLPMACTLTQFVSGSKYYFAVRAKDIYGRFGPFCDPQSTDVISSSQNS
binding [2]: binds

B5: Lrwd1 (protein, UniProt Q8BUI3 1-648)
chain: MAPLTPQLLLQRGRPKTDKLGKIQSLNLSGLQLLSEHLDPNLLGRLKKLRELDLSNNLLETLPANLGLSHLRILRCTNNQLGDVTALHQFPELEELNLEGNPFLTVSDNLKVSFLLPKLRKVNGKDTASTCSQVENLDRELMDRVTAHWQKFIATVSPEEETDKVRADFMRSAVRDVCYGPESLIEFTQWRVRMIAEELVASGGAQVQDAKVPVEHPQAAGASKFRAREVASKRPGKDPVTLPPSKRVRALPPAQAEGSPMGADGGQAALHLEPLHFLQCHSRNNSPKDLETQLWACAFEPAREEGHSRATSQTVATCGGEAVCVIDCQTGLVLHKYKVPGEEFFSVAWTALTVVTQAGHKKRWNMLAAAGLRGMVRLLHVRAGFCCSVIRAHKKAIATLCFSPSHETHLFTASYDKRIILWDIGVPNQDYKFQASQLLTLNCGSVPLRLCPVATCPDDFLLAGCEGGCYCWDVRLDQPQKQRVCEVNFIFSEDSKVSGQRVDGLAFVNEDVVASKGSGQGTIYLWSWSQTWAGRGRQSVLPVVILVRLQWSPTNLAYFSLSTCPGKNLVLCGDEEGSVWIYDVEHLLKEPPQATTLQPPTQILKWPQPTALGQPVTKTMINTVVANAAFTYLTALTDSNIVSIWRRC
binding [1]: binds

The next lines start with the values.

binding [1]: binds
Molecule: Wdr82 (from UniProt Q8BFQ4 1-313)

binding [2]: binds
binding [3]: no binding
Molecule: TASOR (HUSH core complex member), endogenous (from UniProt Q69ZR9 1-1610)

binding [4]: binds
B1: MPP8, found with purified TASOR (protein, UniProt Q3TYA6 1-858)
chain: T1 sequence

binding [4]: binds
B2: PPHLN1 (third HUSH core complex component), endogenous (protein, UniProt Q8K2H1 1-381)
chain: MWSEGRYDYDRLPRERVPPRSHPSDGYHRVVNVVPKRPPLLDKRPPLLDKRPPLLARPDEGGYSRYYSHVDCRVCDEGRSFSHDRRSGPSHSGDESGYRWLRDDHSTSRQPDYRDMRDGFRRKSFYSSHYSRDRSPHKRDAPFFRESPVGRKDSPHSRSGSSVSSRSYSPERSRTHSFHQSQHRKSSRVGASYKRQNEAIRGRGKERSIQSVKTSRDASPSSSSAVASSKALDKPSRLTEKELAEAESKWANETLEKSDESNLAEMNEFEAGSTAPLFIDQTEEPESNTVDGTELYEDSQLSNRSKAIASKTKEIEQVYRQDCETFGMVVKMLIEKDPSLEKSVQFALRQNLHEIGERCVEELKRFITEYDNSARDFGDPF
